Experimental data as given in article PMC4976201 (Nature Communications, 2016).

Assay: general procedure: peptide synthesis; 2-chlorotrityl resin (0.5 mmol/g); DIC/HOBt (SPPS); HATU/HOAT/OxymaPure/DIEA (cyclization)
Details: TFA salt; for isolated mass / isolated yield: whole synthesis, HCl salt for 12; for isolated yield: over all steps, scale of the general procedure 100 mg resin

| Substance | step yield (coupling step) [%] | isolated mass [mg] | isolated yield [%] |
| --- | --- | --- | --- |
| Teixobactin | 36.8 | – | – |
| D-Phe-L-Ile-L-Ser-D-Gln-D-allo-Ile-L-Ile-SAL ester | – | 160.2 | 34.8 |
| D-N-Me-Phe-L-Ile-L-Ser-D-Gln-D-Ile-L-Ile-SAL ester | – | 167.4 | 36.3 |
| D-N-Me-Phe-D-allo-Ile-L-Ser-D-Gln-D-allo-Ile-L-Ile-SAL ester | – | 165.1 | 36.3 |
